# According to patent US20080161232A1 (JERINI AG, priority 2005, published 2008):
# Non-standard residues stand in square brackets, D forms with d. Bta = N[C@@H](Cc1csc2ccccc12)C(=O)O; dCha = N[C@H](CC1CCCCC1)C(=O)O; Orn = NCCC[C@H](N)C(=O)O; Aze = O=C(O)[C@@H]1CCN1
# Assay: general procedure: Fmoc solid-phase peptide synthesis; tritylchloride resin or Wang resin (C-terminal acids); Fmoc-Rink amide resin (C-terminal amides); HBTU/DIPEA
# Settings: whole synthesis, scale 200 mg resin
substance,measurement,value
Ac-F[Orn][Aze][dCha][Bta]F-NHMe (SMILES CNC(=O)[C@H](Cc1ccccc1)NC(=O)[C@H](Cc1csc2ccccc12)NC(=O)[C@@H](CC1CCCCC1)NC(=O)[C@@H]1CCN1C(=O)[C@H](CCCN)NC(=O)[C@H](Cc1ccccc1)NC(C)=O),isolated mass,10.0 mg
